The text below walks through data of paper doi:10.1101/2024.08.22.609103.

Protein sequences, listed by entry. Tags and fused reporters are not part of them.
UniProt Q9P2D1: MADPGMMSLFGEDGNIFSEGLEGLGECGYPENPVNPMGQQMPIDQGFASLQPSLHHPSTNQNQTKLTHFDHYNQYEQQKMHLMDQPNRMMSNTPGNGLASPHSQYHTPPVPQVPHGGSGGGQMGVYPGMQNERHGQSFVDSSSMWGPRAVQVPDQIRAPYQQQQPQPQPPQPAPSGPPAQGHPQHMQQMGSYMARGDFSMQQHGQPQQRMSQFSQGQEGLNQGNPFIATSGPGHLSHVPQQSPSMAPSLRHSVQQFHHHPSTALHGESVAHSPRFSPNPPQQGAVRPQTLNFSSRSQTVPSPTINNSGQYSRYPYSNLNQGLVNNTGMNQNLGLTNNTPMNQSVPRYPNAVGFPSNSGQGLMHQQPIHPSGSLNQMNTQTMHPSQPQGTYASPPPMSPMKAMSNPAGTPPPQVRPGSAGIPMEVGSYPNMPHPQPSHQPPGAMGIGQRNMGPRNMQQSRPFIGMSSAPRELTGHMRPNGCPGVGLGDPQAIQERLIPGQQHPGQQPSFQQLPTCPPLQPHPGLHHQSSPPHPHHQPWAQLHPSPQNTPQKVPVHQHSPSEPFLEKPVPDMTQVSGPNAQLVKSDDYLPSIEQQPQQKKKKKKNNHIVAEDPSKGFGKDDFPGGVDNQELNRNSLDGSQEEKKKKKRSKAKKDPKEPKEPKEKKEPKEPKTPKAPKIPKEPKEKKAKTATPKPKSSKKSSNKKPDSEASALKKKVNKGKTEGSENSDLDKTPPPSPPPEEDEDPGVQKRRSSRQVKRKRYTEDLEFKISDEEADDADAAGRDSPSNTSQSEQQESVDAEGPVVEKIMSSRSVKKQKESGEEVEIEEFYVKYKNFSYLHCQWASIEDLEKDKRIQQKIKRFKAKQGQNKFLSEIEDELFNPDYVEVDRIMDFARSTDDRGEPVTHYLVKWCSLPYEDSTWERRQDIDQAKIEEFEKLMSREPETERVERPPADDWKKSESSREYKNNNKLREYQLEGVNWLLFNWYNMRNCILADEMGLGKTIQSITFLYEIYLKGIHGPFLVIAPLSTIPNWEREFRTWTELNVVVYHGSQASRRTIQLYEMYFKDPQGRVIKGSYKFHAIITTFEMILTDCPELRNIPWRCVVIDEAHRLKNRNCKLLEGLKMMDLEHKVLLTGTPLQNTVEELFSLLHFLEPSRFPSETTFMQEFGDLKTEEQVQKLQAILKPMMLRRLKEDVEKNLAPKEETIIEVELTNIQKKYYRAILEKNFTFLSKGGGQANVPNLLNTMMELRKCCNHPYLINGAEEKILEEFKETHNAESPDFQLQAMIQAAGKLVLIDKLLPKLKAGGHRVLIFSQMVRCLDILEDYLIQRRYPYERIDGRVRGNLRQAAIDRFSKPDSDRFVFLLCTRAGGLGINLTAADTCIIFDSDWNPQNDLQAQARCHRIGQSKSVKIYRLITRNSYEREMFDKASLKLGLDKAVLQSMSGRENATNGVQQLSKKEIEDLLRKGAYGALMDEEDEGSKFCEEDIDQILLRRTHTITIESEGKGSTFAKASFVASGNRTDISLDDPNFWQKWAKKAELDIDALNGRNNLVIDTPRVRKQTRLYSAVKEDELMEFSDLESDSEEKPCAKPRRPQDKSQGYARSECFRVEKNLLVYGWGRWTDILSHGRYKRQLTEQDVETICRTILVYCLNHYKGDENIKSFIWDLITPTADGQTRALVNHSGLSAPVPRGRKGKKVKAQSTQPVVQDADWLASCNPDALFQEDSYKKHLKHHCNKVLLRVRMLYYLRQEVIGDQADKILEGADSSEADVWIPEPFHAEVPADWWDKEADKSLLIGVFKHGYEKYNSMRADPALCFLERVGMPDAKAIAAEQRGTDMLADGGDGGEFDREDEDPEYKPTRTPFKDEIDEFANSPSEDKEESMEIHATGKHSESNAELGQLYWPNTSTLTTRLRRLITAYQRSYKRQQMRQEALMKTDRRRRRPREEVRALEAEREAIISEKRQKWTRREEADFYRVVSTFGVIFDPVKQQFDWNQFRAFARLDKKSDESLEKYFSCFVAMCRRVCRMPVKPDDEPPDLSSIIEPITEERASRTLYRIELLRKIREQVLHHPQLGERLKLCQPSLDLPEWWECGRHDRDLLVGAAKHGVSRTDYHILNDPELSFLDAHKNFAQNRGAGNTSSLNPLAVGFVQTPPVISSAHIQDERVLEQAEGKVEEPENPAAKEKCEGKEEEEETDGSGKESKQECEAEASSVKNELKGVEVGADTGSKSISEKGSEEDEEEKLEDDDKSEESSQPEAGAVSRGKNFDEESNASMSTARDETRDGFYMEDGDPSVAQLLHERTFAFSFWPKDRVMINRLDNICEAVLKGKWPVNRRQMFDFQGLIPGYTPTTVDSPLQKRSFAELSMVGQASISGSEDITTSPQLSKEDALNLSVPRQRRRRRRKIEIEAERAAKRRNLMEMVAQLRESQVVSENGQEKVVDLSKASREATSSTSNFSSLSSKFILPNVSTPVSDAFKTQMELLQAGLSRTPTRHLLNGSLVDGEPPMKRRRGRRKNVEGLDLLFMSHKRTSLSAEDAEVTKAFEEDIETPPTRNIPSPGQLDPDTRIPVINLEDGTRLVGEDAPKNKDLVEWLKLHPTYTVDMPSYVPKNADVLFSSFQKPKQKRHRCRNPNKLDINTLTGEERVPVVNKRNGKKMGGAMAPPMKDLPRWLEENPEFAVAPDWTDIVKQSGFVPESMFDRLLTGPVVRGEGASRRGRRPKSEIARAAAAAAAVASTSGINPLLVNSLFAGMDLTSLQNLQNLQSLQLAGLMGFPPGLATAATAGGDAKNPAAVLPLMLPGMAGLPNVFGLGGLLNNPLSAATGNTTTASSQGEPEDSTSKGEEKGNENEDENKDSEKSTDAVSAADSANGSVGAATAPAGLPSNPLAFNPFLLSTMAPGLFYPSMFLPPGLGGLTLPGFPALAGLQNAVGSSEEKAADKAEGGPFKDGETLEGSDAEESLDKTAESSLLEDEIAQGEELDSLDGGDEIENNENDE

This assay concerns the target FLAG-tagged CHD7 (Chromodomain Helicase DNA-binding factor 7) (UniProt Q9P2D1). In words: co-IP.

Results are given in words; binding and its absence hold for the method and conditions named. Binding seen in cells or lysates may run through a third protein. Some results given as binding are weak or reduced against the parent protein; the word gives no strength. Sequences can lack the tags named with a protein.

B1: HA-tagged Atoh1 (protein, UniProt P48985 1-351)
chain: MSRLLHAEEWAEVKELGDHHRHPQPHHVPPLTPQPPATLQARDLPVYPAELSLLDSTDPRAWLTPTLQGLCTARAAQYLLHSPELGASEAAAPRDEADSQGELVRRSGCGGLSKSPGPVKVREQLCKLKGGVVVDELGCSRQRAPSSKQVNGVQKQRRLAANARERRRMHGLNHAFDQLRNVIPSFNNDKKLSKYETLQMAQIYINALSELLQTPNVGEQPPPPTASCKNDHHHLRTASSYEGGAGASAVAGAQPAPGGGPRPTPPGPCRTRFSGPASSGGYSVQLDALHFPAFEDRALTAMMAQKDLSPSLPGGILQPVQEDNSKTSPRSHRSDGEFSPHSHYSDSDEAS
As to B1, the binding entry was “binds”.
